# Measurements: the supplement of paper PMC10689618
# Structures can show the parent of a compound that is named as a salt. Some of the results follow. Repeats are few or missing, and single values can be far off.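 Labelled rat cortical synaptosomes were engulfed by primary human fetal astrocytes. Engulfment equaled a red/green ratio, corrected for calcein live-cell signal and normalized to the plate median. Compounds were toxic when calcein dropped over 30%, and reduced phagocytosis when below 70% of the median above 5 µM.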
# Key:
# Settings in all cases: 24 h
# [1] = system: Human fetal astrocytes; test: loss of total cells relative to no-compound high-control median (toxicity); higher = more toxic (fewer cells)
# [2] = system: Human fetal astrocytes; test: as above; remark: listed apart in the source
# [3] = system: Human fetal astrocytes; test: synaptosome phagocytosis (pHrodo/calcein intensity ratio) relative to plate median of data wells; higher = more phagocytosis
compound,measurement,setting,value
O=C(O)CN(CC(=O)O)Cc1cc2c(cc1O)Oc1cc(O)c(CN(CC(=O)O)CC(=O)O)cc1C21OC(=O)c2ccccc21,loss of total cells,[1]; 1.39 µM,17%
same,loss of total cells,[1]; 2.78 µM,5.4%
same,loss of total cells,[1]; 5.56 µM,25.4%
same,loss of total cells,[1]; 11.11 µM,-69%
same,loss of total cells,[1]; 22.22 µM,33.3%
COc1cccc2c1C(=O)c1c(O)c3c(c(O)c1C2=O)C[C@@](O)(C(=O)CO)C[C@@H]3O[C@H]1C[C@H](N)[C@H](O)[C@H](C)O1,loss of total cells,[1]; 1.39 µM,-51.6%
same,loss of total cells,[1]; 2.78 µM,-22.2%
same,loss of total cells,[1]; 5.56 µM,4.3%
same,loss of total cells,[1]; 11.11 µM,38.4%
same,loss of total cells,[1]; 22.22 µM,7.8%
CNC(=O)[C@H]1O[C@@H](n2cnc3c(NCc4cccc(I)c4)nc(Cl)nc32)[C@H](O)[C@@H]1O [Chloro-IB-MECA],loss of total cells,[2]; 1.39 µM,-8.8%
same,loss of total cells,[2]; 2.78 µM,-0.9%
same,loss of total cells,[2]; 5.56 µM,1.6%
same,loss of total cells,[2]; 11.11 µM,1.3%
same,synaptosome phagocytosis,[3]; 1.39 µM,77.2%
same,synaptosome phagocytosis,[3]; 2.78 µM,74.3%
same,synaptosome phagocytosis,[3]; 5.56 µM,105%
same,synaptosome phagocytosis,[3]; 11.11 µM,71.4%
CC[n+]1c(-c2ccccc2)c2cc(N)ccc2c2ccc(N)cc21,loss of total cells,[1]; 1.39 µM,28.5%
same,loss of total cells,[1]; 2.78 µM,22%
same,loss of total cells,[1]; 5.56 µM,34.1%
same,loss of total cells,[1]; 11.11 µM,33.9%
same,loss of total cells,[1]; 22.22 µM,19.7%
"O=c1cc(-c2ccccc2)[nH]c2nc(Cl)ccc12 [7-Chloro-4-hydroxy-2-phenyl-1,8-naphthyridine]",loss of total cells,[2]; 1.39 µM,-7%
same,loss of total cells,[2]; 2.78 µM,-5.4%
same,loss of total cells,[2]; 5.56 µM,-4.1%
same,loss of total cells,[2]; 11.11 µM,-11.2%
same,loss of total cells,[2]; 22.22 µM,3.4%
same,synaptosome phagocytosis,[3]; 1.39 µM,107%
same,synaptosome phagocytosis,[3]; 2.78 µM,114%
same,synaptosome phagocytosis,[3]; 5.56 µM,99.9%
same,synaptosome phagocytosis,[3]; 11.11 µM,122%
same,synaptosome phagocytosis,[3]; 22.22 µM,149%
"CN(C)C(=O)N=NC(=O)N(C)C [N,N,N',N'-Tetramethylazodicarboxamide]",loss of total cells,[2]; 22.22 µM,17.6%
same,synaptosome phagocytosis,[3]; 22.22 µM,90.4%
CC(=O)[C@@]1(O)CC[C@H]2[C@@H]3CCC4=CC(=O)CC[C@]4(C)[C@H]3CC[C@@]21C [17alpha-hydroxyprogesterone],loss of total cells,[2]; 1.39 µM,-1.3%
same,loss of total cells,[2]; 2.78 µM,-29.9%
same,loss of total cells,[2]; 5.56 µM,-5.8%
same,loss of total cells,[2]; 11.11 µM,-22.9%
same,loss of total cells,[2]; 22.22 µM,-11.2%
same,synaptosome phagocytosis,[3]; 1.39 µM,118%
same,synaptosome phagocytosis,[3]; 2.78 µM,119%
same,synaptosome phagocytosis,[3]; 5.56 µM,94.1%
same,synaptosome phagocytosis,[3]; 11.11 µM,105%
same,synaptosome phagocytosis,[3]; 22.22 µM,127%
O=P(O)(O)C(Cl)(Cl)P(=O)(O)O [Clodronic acid],loss of total cells,[2]; 22.22 µM,-8%
same,synaptosome phagocytosis,[3]; 22.22 µM,97.4%
CC(C)NCC(O)c1ccc(NS(C)(=O)=O)cc1 (racemic) [(±)-Sotalol hydrochloride],loss of total cells,[2]; 1.39 µM,-2.8%
same,loss of total cells,[2]; 2.78 µM,-11.7%
same,loss of total cells,[2]; 5.56 µM,-1.1%
same,loss of total cells,[2]; 11.11 µM,6.5%
same,loss of total cells,[2]; 22.22 µM,-10.7%
same,synaptosome phagocytosis,[3]; 1.39 µM,104%
same,synaptosome phagocytosis,[3]; 2.78 µM,107%
same,synaptosome phagocytosis,[3]; 5.56 µM,97.8%
same,synaptosome phagocytosis,[3]; 11.11 µM,92.1%
same,synaptosome phagocytosis,[3]; 22.22 µM,93.3%
CC(C)NCC(O)c1cc(O)cc(O)c1 (stereo unspecified) [Metaproterenol hemisulfate],loss of total cells,[2]; 1.39 µM,9%
same,loss of total cells,[2]; 2.78 µM,2.3%
same,loss of total cells,[2]; 5.56 µM,0.5%
same,loss of total cells,[2]; 11.11 µM,8.6%
same,loss of total cells,[2]; 22.22 µM,17.8%
same,synaptosome phagocytosis,[3]; 1.39 µM,114%
same,synaptosome phagocytosis,[3]; 2.78 µM,92.4%
same,synaptosome phagocytosis,[3]; 5.56 µM,83.5%
same,synaptosome phagocytosis,[3]; 11.11 µM,126%
same,synaptosome phagocytosis,[3]; 22.22 µM,136%
O=c1ccc2ccc(O)c(O)c2o1 [Daphnetin],loss of total cells,[2]; 1.39 µM,-0.4%
same,loss of total cells,[2]; 2.78 µM,-5.1%
same,loss of total cells,[2]; 5.56 µM,6.6%
same,loss of total cells,[2]; 11.11 µM,15.7%
same,synaptosome phagocytosis,[3]; 1.39 µM,91.8%
same,synaptosome phagocytosis,[3]; 2.78 µM,90.1%
same,synaptosome phagocytosis,[3]; 5.56 µM,112%
same,synaptosome phagocytosis,[3]; 11.11 µM,95.4%
O=C1N=C(O)NC1(c1ccccc1)c1ccccc1 [Phenytoin sodium],loss of total cells,[2]; 1.39 µM,-1.3%
same,loss of total cells,[2]; 2.78 µM,0%
same,loss of total cells,[2]; 5.56 µM,1.6%
same,loss of total cells,[2]; 11.11 µM,1.3%
same,synaptosome phagocytosis,[3]; 1.39 µM,116%
same,synaptosome phagocytosis,[3]; 2.78 µM,108%
same,synaptosome phagocytosis,[3]; 5.56 µM,104%
same,synaptosome phagocytosis,[3]; 11.11 µM,110%
"N[C@H](C(=O)O)c1cc(O)cc(O)c1 [(S)-3,5-Dihydroxyphenylglycine]",loss of total cells,[2]; 1.39 µM,-7.1%
same,loss of total cells,[2]; 2.78 µM,3.4%
same,loss of total cells,[2]; 5.56 µM,7.4%
same,loss of total cells,[2]; 11.11 µM,-9.4%
same,synaptosome phagocytosis,[3]; 1.39 µM,88.3%
same,synaptosome phagocytosis,[3]; 2.78 µM,95.9%
same,synaptosome phagocytosis,[3]; 5.56 µM,89.6%
same,synaptosome phagocytosis,[3]; 11.11 µM,107%

# Reformatted bar-delimited: entries from further up.
compound | measurement | setting | value
CN(C)C(=O)N=NC(=O)N(C)C [N,N,N',N'-Tetramethylazodicarboxamide] | synaptosome phagocytosis | [3]; 22.22 µM | 90.4%
CC(=O)[C@@]1(O)CC[C@H]2[C@@H]3CCC4=CC(=O)CC[C@]4(C)[C@H]3CC[C@@]21C [17alpha-hydroxyprogesterone] | loss of total cells | [2]; 1.39 µM | -1.3%
same | loss of total cells | [2]; 2.78 µM | -29.9%

# 2 neighbouring entries out of the list so far:
compound,measurement,setting,value
O=c1ccc2ccc(O)c(O)c2o1 [Daphnetin],synaptosome phagocytosis,[3]; 5.56 µM,112%
same,synaptosome phagocytosis,[3]; 11.11 µM,95.4%
